## Screening data

Data taken from PubChem BioAssay AID912, deposited by NCATS (2007).

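A cell-based FRET test of anthrax lethal toxin entry, tracked through the 460 nm emission signal; the cell line is not named here. Each compound was tested as a concentration series from about 0.0005 to 40 µM. The number is the fitted AC50 of the 460 nm signal alone; lower values mean a more potent effect. A falling signal goes with compounds filed as inhibitors or cytotoxic, a rising one with activators or fluorescent compounds (inferred from the filed classes).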

Values are in nM. Common to all entries: measured here: 460 nm channel. Part of the compounds only, not a random draw; the main read-out is not listed here. A potency from a partial, single-point or poor curve is only a rough figure. The first word of each remark tells which way the curve ran; it can be opposite to the aim of the assay.

{"compound": "CCCCCn1c(CN2CCN(c3cccc(Cl)c3)CC2)nc2c1c(=O)[nH]c(=O)n2C", "AC50 (nM)": "7943", "remark": "rising, partial curve"}
{"compound": "O=C(Nc1nc(-c2nc3ccccc3s2)cs1)C1COc2ccccc2O1", "stereo": "stereo not drawn", "AC50 (nM)": "2512", "remark": "falling, full curve"}
{"compound": "O=C1CCCCCN1Sc1ccccc1", "AC50 (nM)": "12589", "remark": "falling, partial curve"}
{"compound": "COc1cccc(NC(=O)c2oc3ccccc3c2NC(=O)C2CC2)c1", "AC50 (nM)": "7943", "remark": "falling, partial curve, poor fit"}
{"compound": "COc1cccc(-c2nc(NCCc3c[nH]c4ccc(OC)cc34)c3ccccc3n2)c1", "AC50 (nM)": "19952", "remark": "falling, single point"}
{"compound": "COc1ccccc1CNc1cc(-c2ccccc2OC)ncn1", "AC50 (nM)": "12589", "remark": "falling, partial curve"}
{"compound": "COC(=O)c1ccc(OC)c(CSc2nnc(COc3ccc(OC)cc3)o2)c1", "AC50 (nM)": "398.1", "remark": "falling, full curve"}
{"compound": "COC(=O)c1[nH]c2cc(OC)c(OC)cc2c1NC(=O)CN1CCN(Cc2ccccc2)CC1", "AC50 (nM)": "3.162", "remark": "falling, full curve"}
{"compound": "O=c1cc(N2CCN(c3ccc(F)cc3)CC2)[nH]c(=O)n1C1CCCCC1", "AC50 (nM)": "15848", "remark": "rising, single point"}
{"compound": "COc1ccccc1CNc1ccnc(-c2ccc(N(C)C)cc2)n1", "AC50 (nM)": "12589", "remark": "rising, single point"}
{"compound": "CCCn1c(C)nc2c(N(C)CCN(C)C)nc(C)nc21", "AC50 (nM)": "12589", "remark": "falling, partial curve"}
{"compound": "CN(Cc1ccccc1)c1nc2c(c(=O)n(C)c(=O)n2C)n1CCCc1ccccc1", "AC50 (nM)": "31622", "remark": "falling, single point"}
{"compound": "Cc1ccccc1Nc1nc(CSc2nnc(-c3ccoc3C)n2C)cs1", "AC50 (nM)": "1585", "remark": "falling, partial curve"}
{"compound": "CCOc1ccc2[nH]c(=O)c(CN(CCO)C(=O)c3ccc(Br)cc3)cc2c1", "AC50 (nM)": "3.981", "remark": "rising, full curve"}
{"compound": "Cc1cc2c(C(C)C)c(O)c(O)c(C=O)c2c(O)c1-c1c(C)cc2c(C(C)C)c(O)c(O)c(C=O)c2c1O", "AC50 (nM)": "631", "remark": "falling, full curve"}
{"compound": "CC(=O)NC(C)C(c1cccs1)N1CCN(c2ccccc2)CC1", "stereo": "stereo not drawn", "AC50 (nM)": "1995", "remark": "rising, partial curve"}
{"compound": "O=S(=O)(c1ccc2c(c1)OCCO2)N1CCC(n2nnc3cc(F)ccc32)CC1", "AC50 (nM)": "25118", "remark": "rising, single point"}
{"compound": "O=C(NCc1ccc(F)cc1)C1CCCN1C(=O)NCc1ccccc1", "stereo": "stereo not drawn", "AC50 (nM)": "3981", "remark": "rising, single point"}
{"compound": "CCOCCCNC(=O)c1ccccc1SCC", "AC50 (nM)": "3162", "remark": "rising, single point"}
{"compound": "Cn1c(=O)cc(OCCCC(=O)N2CCN(Cc3ccc4c(c3)OCO4)CC2)c2ccccc21", "AC50 (nM)": "10000", "remark": "rising, single point"}
{"compound": "COc1ccccc1CNC(=O)C1CCC(CNc2c(N3CCOCC3)c(=O)c2=O)CC1", "stereo": "stereo not drawn", "AC50 (nM)": "15848", "remark": "rising, single point"}
{"compound": "CSc1ccccc1NC(=O)c1cnc2scc(C)n2c1=O", "AC50 (nM)": "12589", "remark": "falling, partial curve"}
{"compound": "Cc1noc(C)c1C(=O)N1CCC2(CC1)CN(c1ccccn1)C2", "AC50 (nM)": "12589", "remark": "falling, partial curve"}
{"compound": "O=c1c(-c2ccccc2)nc2cnc(N3CCNCC3)nc2n1Cc1ccc(F)cc1", "AC50 (nM)": "2512", "remark": "rising, full curve"}
{"compound": "O=C(O)C1C2C=CC(O2)C1C(=O)NCc1ccc2c(c1)OCO2", "stereo": "stereo not drawn", "AC50 (nM)": "631", "remark": "rising, full curve, poor fit"}
{"compound": "N#Cc1c(N)sc2c1CCCCCC2", "AC50 (nM)": "31622", "remark": "falling, partial curve"}

For reference, 2 entries once more:

| compound | AC50 (nM) | remark |
|---|---|---|
| `CCOCCCNC(=O)c1ccccc1SCC` | 3162 | rising, single point |
| `O=c1cc(N2CCN(c3ccc(F)cc3)CC2)[nH]c(=O)n1C1CCCCC1` | 15848 | rising, single point |